Data as given in the supplement of paper PMC11732987, “Enantioselective OTUD7B fragment discovery through chemoproteomics screening and high-throughput optimisation” (Communications Chemistry, 2025).
Some of the results follow. The data scatter; read single values as rough.

Protein sequences, listed by entry. Tags and fused reporters are not part of them. Lines headed by an entry give the natural chain unless they say otherwise; changes in a name come on top. Residues count along the entry.
UniProt Q7Z7G8, 1999-2021: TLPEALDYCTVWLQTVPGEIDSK
UniProt Q9C0B0: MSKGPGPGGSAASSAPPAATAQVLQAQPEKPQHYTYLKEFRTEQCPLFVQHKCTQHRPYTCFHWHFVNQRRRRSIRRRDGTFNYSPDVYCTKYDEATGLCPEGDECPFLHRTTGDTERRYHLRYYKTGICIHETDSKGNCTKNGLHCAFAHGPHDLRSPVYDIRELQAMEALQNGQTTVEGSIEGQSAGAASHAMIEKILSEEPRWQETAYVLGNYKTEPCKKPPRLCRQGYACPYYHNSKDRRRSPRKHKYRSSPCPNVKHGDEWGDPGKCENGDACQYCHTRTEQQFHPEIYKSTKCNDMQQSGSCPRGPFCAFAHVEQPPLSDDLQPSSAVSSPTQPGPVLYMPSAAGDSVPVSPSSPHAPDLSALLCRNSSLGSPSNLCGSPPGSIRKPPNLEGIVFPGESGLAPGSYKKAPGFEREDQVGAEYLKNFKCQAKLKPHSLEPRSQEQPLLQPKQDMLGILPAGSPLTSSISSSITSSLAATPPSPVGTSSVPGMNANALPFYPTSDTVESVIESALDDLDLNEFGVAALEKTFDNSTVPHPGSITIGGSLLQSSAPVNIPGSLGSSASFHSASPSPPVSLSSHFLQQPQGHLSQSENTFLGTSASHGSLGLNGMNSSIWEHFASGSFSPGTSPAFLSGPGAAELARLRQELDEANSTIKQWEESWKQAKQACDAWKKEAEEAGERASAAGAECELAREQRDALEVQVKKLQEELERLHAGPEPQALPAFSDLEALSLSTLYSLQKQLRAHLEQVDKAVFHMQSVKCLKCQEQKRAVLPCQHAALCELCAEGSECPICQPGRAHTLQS
UniProt Q14119: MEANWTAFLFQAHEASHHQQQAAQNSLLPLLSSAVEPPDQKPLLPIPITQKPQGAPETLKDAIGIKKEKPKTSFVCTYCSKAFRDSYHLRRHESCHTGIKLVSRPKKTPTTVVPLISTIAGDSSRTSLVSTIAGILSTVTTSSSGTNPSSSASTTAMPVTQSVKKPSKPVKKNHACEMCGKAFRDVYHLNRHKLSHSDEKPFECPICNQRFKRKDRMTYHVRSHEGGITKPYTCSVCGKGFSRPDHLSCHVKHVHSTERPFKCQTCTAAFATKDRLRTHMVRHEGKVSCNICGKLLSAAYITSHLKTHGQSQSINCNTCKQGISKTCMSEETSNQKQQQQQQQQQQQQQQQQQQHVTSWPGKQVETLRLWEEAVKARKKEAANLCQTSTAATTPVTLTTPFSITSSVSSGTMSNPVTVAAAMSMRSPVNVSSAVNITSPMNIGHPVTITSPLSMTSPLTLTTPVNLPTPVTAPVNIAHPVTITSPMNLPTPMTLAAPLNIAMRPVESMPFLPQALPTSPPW
UniProt Q8TED0: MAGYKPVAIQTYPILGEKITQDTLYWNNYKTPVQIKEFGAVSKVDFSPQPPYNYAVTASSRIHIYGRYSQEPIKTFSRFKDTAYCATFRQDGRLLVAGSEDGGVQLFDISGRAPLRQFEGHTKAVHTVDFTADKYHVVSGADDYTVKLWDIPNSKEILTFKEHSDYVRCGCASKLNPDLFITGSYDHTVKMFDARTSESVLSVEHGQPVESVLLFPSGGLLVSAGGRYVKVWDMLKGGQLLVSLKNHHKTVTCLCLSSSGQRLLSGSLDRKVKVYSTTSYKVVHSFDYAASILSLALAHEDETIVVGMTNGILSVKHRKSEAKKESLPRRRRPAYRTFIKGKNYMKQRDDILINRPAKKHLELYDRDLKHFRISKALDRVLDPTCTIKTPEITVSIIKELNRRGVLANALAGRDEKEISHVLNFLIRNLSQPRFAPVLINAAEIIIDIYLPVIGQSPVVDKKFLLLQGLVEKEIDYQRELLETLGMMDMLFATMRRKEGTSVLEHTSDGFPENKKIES
UniProt Q70EL1: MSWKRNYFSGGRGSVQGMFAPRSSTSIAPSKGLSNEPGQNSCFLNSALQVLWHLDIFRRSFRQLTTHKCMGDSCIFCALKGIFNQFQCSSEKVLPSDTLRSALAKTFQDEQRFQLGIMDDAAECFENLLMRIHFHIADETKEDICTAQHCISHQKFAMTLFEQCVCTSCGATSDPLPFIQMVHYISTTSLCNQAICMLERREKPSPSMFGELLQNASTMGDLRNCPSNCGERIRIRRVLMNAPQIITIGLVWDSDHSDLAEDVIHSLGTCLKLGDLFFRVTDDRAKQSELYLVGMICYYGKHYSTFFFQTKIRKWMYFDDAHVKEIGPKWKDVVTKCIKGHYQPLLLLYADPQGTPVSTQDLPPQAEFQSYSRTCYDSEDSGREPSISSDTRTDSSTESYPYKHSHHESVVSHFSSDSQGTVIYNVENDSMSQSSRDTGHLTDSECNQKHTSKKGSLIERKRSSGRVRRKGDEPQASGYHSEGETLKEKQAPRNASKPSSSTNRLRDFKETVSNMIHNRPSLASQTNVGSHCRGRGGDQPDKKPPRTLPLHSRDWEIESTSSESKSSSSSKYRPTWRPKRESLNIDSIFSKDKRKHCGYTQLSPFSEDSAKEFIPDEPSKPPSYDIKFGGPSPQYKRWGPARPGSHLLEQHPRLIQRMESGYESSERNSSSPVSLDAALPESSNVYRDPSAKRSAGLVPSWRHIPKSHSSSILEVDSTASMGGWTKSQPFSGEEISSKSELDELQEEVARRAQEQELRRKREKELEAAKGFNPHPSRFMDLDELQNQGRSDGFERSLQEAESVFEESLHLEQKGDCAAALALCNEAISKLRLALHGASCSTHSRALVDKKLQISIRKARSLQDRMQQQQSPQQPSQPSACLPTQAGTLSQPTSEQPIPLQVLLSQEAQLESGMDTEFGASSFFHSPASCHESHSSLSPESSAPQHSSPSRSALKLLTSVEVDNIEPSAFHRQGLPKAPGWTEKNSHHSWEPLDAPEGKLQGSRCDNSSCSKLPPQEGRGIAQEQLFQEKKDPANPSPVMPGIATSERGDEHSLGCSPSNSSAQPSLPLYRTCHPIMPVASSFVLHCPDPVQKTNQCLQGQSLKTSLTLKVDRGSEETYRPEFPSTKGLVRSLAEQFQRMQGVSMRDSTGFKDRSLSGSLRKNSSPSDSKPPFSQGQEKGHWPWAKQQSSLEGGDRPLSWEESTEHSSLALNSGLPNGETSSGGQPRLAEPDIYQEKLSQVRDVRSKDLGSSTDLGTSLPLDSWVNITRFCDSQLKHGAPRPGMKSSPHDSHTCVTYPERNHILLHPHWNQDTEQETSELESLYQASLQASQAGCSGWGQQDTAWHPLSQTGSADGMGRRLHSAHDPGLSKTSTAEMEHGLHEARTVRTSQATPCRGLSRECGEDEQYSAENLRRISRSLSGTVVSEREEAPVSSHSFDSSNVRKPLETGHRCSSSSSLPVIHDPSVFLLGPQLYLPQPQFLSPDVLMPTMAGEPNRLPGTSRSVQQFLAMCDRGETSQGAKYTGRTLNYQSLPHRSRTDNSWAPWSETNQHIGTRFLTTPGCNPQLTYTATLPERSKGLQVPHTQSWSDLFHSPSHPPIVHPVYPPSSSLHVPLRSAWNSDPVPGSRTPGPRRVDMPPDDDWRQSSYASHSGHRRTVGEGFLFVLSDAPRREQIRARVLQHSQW
UniProt Q9HAU5: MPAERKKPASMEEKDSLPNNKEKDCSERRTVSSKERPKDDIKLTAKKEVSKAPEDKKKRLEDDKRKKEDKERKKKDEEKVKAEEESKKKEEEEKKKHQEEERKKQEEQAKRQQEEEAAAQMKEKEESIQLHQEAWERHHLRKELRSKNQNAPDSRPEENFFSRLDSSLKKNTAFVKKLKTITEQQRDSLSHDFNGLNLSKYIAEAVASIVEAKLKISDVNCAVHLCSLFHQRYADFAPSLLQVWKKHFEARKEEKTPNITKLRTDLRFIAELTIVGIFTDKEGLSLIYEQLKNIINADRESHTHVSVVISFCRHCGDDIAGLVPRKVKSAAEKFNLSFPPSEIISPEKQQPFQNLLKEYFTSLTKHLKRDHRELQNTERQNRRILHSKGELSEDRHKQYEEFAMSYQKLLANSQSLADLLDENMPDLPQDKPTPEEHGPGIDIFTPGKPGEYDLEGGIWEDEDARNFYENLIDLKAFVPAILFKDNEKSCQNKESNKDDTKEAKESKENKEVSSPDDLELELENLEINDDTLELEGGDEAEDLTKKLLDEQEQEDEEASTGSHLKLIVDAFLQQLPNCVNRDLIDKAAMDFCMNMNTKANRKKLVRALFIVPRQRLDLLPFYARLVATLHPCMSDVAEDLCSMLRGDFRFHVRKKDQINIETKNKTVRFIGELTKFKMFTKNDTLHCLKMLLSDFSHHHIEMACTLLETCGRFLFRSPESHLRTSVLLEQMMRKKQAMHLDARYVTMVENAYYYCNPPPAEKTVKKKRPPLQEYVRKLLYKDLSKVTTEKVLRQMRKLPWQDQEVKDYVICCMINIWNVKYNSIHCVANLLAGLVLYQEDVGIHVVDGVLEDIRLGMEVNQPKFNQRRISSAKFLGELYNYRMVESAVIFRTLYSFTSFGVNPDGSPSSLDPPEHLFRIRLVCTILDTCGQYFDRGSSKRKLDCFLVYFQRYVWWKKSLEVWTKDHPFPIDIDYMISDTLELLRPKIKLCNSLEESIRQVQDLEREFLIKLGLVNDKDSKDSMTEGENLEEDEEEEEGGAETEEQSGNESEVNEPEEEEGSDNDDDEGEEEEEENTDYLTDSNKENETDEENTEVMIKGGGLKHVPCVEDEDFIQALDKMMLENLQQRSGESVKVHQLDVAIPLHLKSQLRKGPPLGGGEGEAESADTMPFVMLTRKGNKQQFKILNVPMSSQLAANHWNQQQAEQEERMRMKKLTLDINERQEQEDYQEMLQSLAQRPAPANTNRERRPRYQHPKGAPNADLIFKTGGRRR
UniProt Q9UPU5, 1-24: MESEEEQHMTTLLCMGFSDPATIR
UniProt O75385: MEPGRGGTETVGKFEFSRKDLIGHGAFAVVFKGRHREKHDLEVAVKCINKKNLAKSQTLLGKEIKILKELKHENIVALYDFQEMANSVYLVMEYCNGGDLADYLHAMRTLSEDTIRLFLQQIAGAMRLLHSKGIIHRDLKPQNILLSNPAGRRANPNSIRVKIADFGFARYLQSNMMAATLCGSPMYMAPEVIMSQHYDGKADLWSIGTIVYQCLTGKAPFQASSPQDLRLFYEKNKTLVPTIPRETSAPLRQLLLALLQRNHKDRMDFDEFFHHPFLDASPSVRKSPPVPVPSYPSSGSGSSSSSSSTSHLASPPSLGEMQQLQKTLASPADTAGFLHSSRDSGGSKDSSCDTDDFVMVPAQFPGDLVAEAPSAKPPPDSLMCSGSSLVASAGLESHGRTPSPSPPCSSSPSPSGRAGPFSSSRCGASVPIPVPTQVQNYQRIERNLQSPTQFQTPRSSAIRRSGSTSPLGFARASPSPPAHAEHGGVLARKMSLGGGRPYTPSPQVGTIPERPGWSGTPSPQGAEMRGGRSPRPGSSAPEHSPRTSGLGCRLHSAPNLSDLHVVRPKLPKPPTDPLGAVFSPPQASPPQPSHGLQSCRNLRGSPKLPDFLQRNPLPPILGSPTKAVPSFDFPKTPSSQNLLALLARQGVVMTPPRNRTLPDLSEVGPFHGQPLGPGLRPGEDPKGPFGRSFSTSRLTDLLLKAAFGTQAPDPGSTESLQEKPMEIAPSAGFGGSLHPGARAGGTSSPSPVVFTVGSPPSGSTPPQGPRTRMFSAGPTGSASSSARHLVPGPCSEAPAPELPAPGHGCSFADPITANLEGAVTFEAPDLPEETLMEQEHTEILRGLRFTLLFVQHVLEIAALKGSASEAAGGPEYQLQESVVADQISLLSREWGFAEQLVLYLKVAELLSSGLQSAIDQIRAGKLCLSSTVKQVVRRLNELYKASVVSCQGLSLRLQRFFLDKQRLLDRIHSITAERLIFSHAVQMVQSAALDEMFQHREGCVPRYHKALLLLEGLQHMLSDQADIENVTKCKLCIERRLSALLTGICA
UniProt P07919: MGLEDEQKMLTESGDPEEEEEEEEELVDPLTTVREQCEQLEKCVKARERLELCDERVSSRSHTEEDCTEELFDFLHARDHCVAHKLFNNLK
UniProt Q9NYH9: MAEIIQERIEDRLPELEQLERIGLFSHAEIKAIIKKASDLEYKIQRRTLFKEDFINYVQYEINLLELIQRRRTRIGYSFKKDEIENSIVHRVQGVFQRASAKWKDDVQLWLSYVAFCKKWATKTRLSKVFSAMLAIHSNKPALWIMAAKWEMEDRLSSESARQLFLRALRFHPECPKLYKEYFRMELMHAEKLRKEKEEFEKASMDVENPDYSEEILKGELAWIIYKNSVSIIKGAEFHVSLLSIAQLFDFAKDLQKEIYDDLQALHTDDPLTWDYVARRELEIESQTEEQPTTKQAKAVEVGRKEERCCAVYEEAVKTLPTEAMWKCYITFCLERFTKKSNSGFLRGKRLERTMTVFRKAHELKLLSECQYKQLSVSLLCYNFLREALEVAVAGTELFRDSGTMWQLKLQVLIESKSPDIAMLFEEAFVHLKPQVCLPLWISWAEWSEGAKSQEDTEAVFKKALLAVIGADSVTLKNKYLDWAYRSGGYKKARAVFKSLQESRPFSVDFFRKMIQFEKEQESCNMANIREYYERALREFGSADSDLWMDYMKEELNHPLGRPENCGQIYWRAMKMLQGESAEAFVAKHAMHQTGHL

Compound: ClCC(=O)N[C@@H]1CCCc2ccccc12
Experiment: log2 mean competition ratio of IA-DTB cysteine labelling (DMSO/compound) (log2 ratio); higher = stronger cysteine engagement by compound
Conditions: 50 µM; treatment time: 4 h; cell line lysate: HEK293T
Method: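 IA-DTB competitive cysteine chemoproteomics in HEK293T RIPA lysate. Lysates were treated with compound 29 or 30 at 50 or 200 µM for 4 h, then IA-DTB (500 µM, 1 h), trypsin-digested, NeutrAvidin-enriched and analysed by diaPASEF. Competition ratio = intensity DMSO / intensity compound (n=4 treated, n=64 DMSO); binding: mean log2 CR ≥ 1 and p ≤ 0.05 plus QC filters. Target is the cysteine site.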

Row | Target | log2 mean competition ratio
1 | VPS13B C2907 (UniProt Q7Z7G8) | -0.316
2 | UNK C696 (UniProt Q9C0B0) | -0.161
3 | VPS13D C374 (UniProt Q5THJ4) | -0.229
4 | VEZF1 C327 (UniProt Q14119) | -0.0726
5 | VKORC1L1 C58 | 0.262
6 | UCHL5 C191 | -0.145
7 | UTP15 C385 (UniProt Q8TED0) | -0.158
8 | USP54 C1394 (UniProt Q70EL1) | -0.283
9 | UPF2 C315 (UniProt Q9HAU5) | -0.263

As a short view, part of the list above.
Row | Target | log2 mean competition ratio
6 | UCHL5 C191 | -0.145
7 | UTP15 C385 (UniProt Q8TED0) | -0.158

Same assay, conditions: 200 µM; treatment time: 4 h; cell line lysate: HEK293T

Row | Target | log2 mean competition ratio
10 | UGP2 C123 | -0.0529
11 | UNK C45 (UniProt Q9C0B0) | 0.467
12 | USP24 C802 (UniProt Q9UPU5) | 0.213
13 | USP24 C1859 (UniProt Q9UPU5) | -0.173
14 | USP22 C44 (UniProt Q9UPT9) | -0.265
15 | USP16 C286 (UniProt Q9Y5T5) | -0.17
16 | UTP20 C242 (UniProt O75691) | -0.0953
17 | ULK1 C927 (UniProt O75385) | -0.176
18 | UNC45A C535 (UniProt Q9H3U1) | 0.246
19 | UQCRH C67 (UniProt P07919) | 0.409
20 | UTP6 C175 (UniProt Q9NYH9) | 0.0081
21 | USP24 C14 (UniProt Q9UPU5) | -0.00448
22 | VAC14 C719 (UniProt Q08AM6) | -0.0894
23 | VPS13B C2007 (UniProt Q7Z7G8) | 0.314
24 | UHRF2 C14 (UniProt Q96PU4) | 0.138
25 | USP34 C1380 (UniProt Q70CQ2) | 0.131
26 | USP48 C39 (UniProt Q86UV5) | -0.0915
27 | VPS11 C709 (UniProt Q9H270) | -0.41
28 | UCKL1 C35 (UniProt Q9NWZ5) | 0.0208
